The values below come from PMC4627318.

By UniProt entry, the sequences of proteins in these tests, tags left out.
UniProt O60260: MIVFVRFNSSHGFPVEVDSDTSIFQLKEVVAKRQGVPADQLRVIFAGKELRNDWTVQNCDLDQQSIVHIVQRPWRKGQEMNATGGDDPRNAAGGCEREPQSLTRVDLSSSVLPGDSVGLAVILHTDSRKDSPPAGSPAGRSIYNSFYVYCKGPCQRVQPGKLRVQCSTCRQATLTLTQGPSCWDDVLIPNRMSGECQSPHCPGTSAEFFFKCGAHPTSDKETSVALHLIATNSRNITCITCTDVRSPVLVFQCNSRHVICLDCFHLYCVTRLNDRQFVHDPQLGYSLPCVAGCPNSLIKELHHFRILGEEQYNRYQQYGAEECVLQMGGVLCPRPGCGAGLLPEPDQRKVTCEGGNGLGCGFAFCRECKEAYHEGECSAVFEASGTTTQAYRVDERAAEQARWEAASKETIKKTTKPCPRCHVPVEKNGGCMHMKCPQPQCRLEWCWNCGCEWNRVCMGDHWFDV

For test [1], the target named is endogenous p53 (human (endogenous in MCF7)) (UniProt P04637). In words: co-IP.
Test [2] has as its target Parkin (human (endogenous in MDA-MB-157 and MCF7)) (UniProt O60260). In words: co-IP.

Results are given in words; binding and its absence hold for the method and conditions named. In cells and extracts the contact can be indirect. Some binding calls cover weakened binding; strength is not graded here.

Parkin (from UniProt O60260 1-465): the binding result in test [1] is “binds”.
For “endogenous p53 (from UniProt P04637 1-393)”, the binding result in test [2] is listed as “binds”.
